# The other results are listed elsewhere or left out.
# B1: PX9916F-bfa-443-24-443 (Bacteroides fragilis) (protein)
# chain: DIRPVGSVIPQTAEEYRALLARAYLNVPNDRGLACLRSDEMLVNDNEYDRNSYGDIERWNDVSPFPGTSQFTWSNFYNVLFIANQVIESQKEITEGTPEVVNQLVGEAHLLRAYLHFVLVNLHGQPYTKSGALNSKSIPLKLDTDLEKTLGRNTVEEVYTSILSDIEHARELINKEKWETVFSYRFNVLSVDALQSRVSLYMGAWPKCLESAEAVLAKKSVLVDMNETPLALPNHFESVESITALEQVMGSSVNNAVWVPATFLALYQEGDKRLAAYFAAPDENGNRKSSKGGKREFSCTFRVGELYLNAAEAAANMDKLPHARMRLLELMRKRYTPEAYDKKENAVNVMDKNALISEILNERARELAFEGHRWFDLRRTTRPRMVKVLQGKTYILEQDDPRYTIPIPRDAIAANPGLAN
# How the values were obtained:
# Test in all cases: glycan array binding signal (z-score within array); higher = stronger binding
# Details in all cases: glycan notation: IUPAC condensed, linker removed
# [1] = target: Gal(b1-3)GlcNAc(b1-3)Gal(b1-4)GlcNAc(b1-2)[Gal(b1-3)GlcNAc(b1-3)Gal(b1-4)GlcNAc(b1-6)]Man(a1-6)[Gal(b1-3)GlcNAc(b1-3)Gal(b1-4)GlcNAc(b1-2)Man(a1-3)]Man(b1-4)GlcNAc(b1-4)[Fuc(a1-6)]GlcNAc
# How it was run: (§1)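 Glycan array data came from 3228 arrays in the Consortium for Functional Glycomics database, and only arrays with an available protein sequence were kept. Glycan names were put into IUPAC-condensed notation, and columns mapping to the same glycan were averaged. The binding signal is a within-array Z-score, averaged across arrays of one protein sequence run at different concentrations or buffers and across linkers. A negative Z-score can be read as non-binding.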
# [2] = target: Gal(b1-3)GlcNAc(b1-3)Gal(b1-4)GlcNAc(b1-3)Gal(b1-4)GlcNAc(b1-2)[Gal(b1-3)GlcNAc(b1-3)Gal(b1-4)GlcNAc(b1-3)Gal(b1-4)GlcNAc(b1-6)]Man(a1-6)[Gal(b1-3)GlcNAc(b1-3)Gal(b1-4)GlcNAc(b1-3)Gal(b1-4)GlcNAc(b1-2)Man(a1-3)]Man(b1-4)GlcNAc(b1-4)[Fuc(a1-6)]GlcNAc
# How it was run: as §1
# [3] = target: Gal(b1-3)GlcNAc(b1-3)Gal(b1-4)GlcNAc(b1-6)[Gal(b1-3)GlcNAc(b1-3)]Gal(b1-4)Glc
# How it was run: as §1
# [4] = target: Gal(b1-3)GlcNAc(b1-3)Gal(b1-4)[Fuc(a1-3)]GlcNAc
# How it was run: as §1
# [5] = target: Gal(b1-3)GlcNAc(b1-3)Gal(b1-4)[Fuc(a1-3)]GlcNAc(b1-6)[Gal(b1-3)GlcNAc(b1-3)]Gal(b1-4)Glc
# How it was run: as §1
# [6] = target: Gal(b1-3)GlcNAc(b1-3)GalNAc
# How it was run: as §1
# [7] = target: Gal(b1-3)GlcNAc(b1-6)Gal(b1-4)GlcNAc
# How it was run: as §1
# [8] = target: Gal(b1-3)GlcNAc(b1-6)GalNAc
# How it was run: as §1
# [9] = target: Gal(b1-3)GlcNAc(b1-6)[Gal(b1-3)]GalNAc
# How it was run: as §1
# Gal(b1-3)GlcNAc6S = target: Gal(b1-3)GlcNAc6S
# How it was run: as §1
# [10] = target: Gal(b1-3)[Fuc(a1-4)]GlcNAc
# How it was run: as §1
# [11] = target: Gal(b1-3)[Fuc(a1-4)]GlcNAc(b1-2)Man
# How it was run: as §1
# [12] = target: Gal(b1-3)[Fuc(a1-4)]GlcNAc(b1-2)Man(a1-3)[Gal(b1-3)[Fuc(a1-4)]GlcNAc(b1-2)Man(a1-6)]Man(b1-4)GlcNAc(b1-4)[Fuc(a1-6)]GlcNAc
# How it was run: as §1
# [13] = target: Gal(b1-3)[Fuc(a1-4)]GlcNAc(b1-3)Gal(b1-3)[Fuc(a1-4)]GlcNAc
# How it was run: as §1
# [14] = target: Gal(b1-3)[Fuc(a1-4)]GlcNAc(b1-3)Gal(b1-4)[Fuc(a1-3)]GlcNAc
# How it was run: as §1
# [15] = target: Gal(b1-3)[Fuc(a1-4)]GlcNAc(b1-6)GalNAc
# How it was run: as §1
# [16] = target: Gal(b1-3)[GlcNAc(b1-6)]GalNAc
# How it was run: as §1
# [17] = target: Gal(b1-3)[Neu5Ac(a2-6)]GalNAc
# How it was run: as §1
# [18] = target: Gal(b1-3)[Neu5Ac(a2-6)]GlcNAc(b1-4)Gal(b1-4)Glc
# How it was run: as §1
# [19] = target: Gal(b1-3)[Neu5Ac(b2-6)]GalNAc
# How it was run: as §1
# Gal(b1-4)Gal = target: Gal(b1-4)Gal
# How it was run: as §1
# [20] = target: Gal(b1-4)GalNAc(a1-3)[Fuc(a1-2)]Gal(b1-4)GlcNAc
# How it was run: as §1
# [21] = target: Gal(b1-4)GalNAc(b1-3)[Fuc(a1-2)]Gal(b1-4)GlcNAc
# How it was run: as §1
# Gal(b1-4)Glc = target: Gal(b1-4)Glc
# How it was run: as §1
# Gal(b1-4)Glc6S = target: Gal(b1-4)Glc6S
# How it was run: as §1
# Gal(b1-4)GlcNAc = target: Gal(b1-4)GlcNAc
# How it was run: as §1
# [22] = target: Gal(b1-4)GlcNAc(a1-6)Gal(b1-4)GlcNAc
# How it was run: as §1
# Gal(b1-4)GlcNAc(b1-2)Man = target: Gal(b1-4)GlcNAc(b1-2)Man
# How it was run: as §1
# [23] = target: Gal(b1-4)GlcNAc(b1-2)Man(a1-3)Man(b1-4)GlcNAc(b1-4)GlcNAc
# How it was run: as §1
# [24] = target: Gal(b1-4)GlcNAc(b1-2)Man(a1-3)[Gal(b1-4)GlcNAc(b1-2)Man(a1-6)]Man(b1-4)GlcNAc(b1-4)GlcNAc
# How it was run: as §1
# [25] = target: Gal(b1-4)GlcNAc(b1-2)Man(a1-3)[Gal(b1-4)GlcNAc(b1-2)Man(a1-6)]Man(b1-4)GlcNAc(b1-4)[Fuc(a1-6)]GlcNAc
# How it was run: as §1
# [26] = target: Gal(b1-4)GlcNAc(b1-2)Man(a1-3)[Gal(b1-4)GlcNAc(b1-2)Man(a1-6)][Gal(b1-4)GlcNAc(b1-4)]Man(b1-4)GlcNAc(b1-4)[Fuc(a1-6)]GlcNAc
# How it was run: as §1
# [27] = target: Gal(b1-4)GlcNAc(b1-2)Man(a1-3)[Gal(b1-4)GlcNAc(b1-2)Man(a1-6)][GlcNAc(b1-4)]Man(b1-4)GlcNAc(b1-4)[Fuc(a1-6)]GlcNAc
# How it was run: as §1
# [28] = target: Gal(b1-4)GlcNAc(b1-2)Man(a1-3)[GlcNAc(b1-2)Man(a1-6)]Man(b1-4)GlcNAc(b1-4)GlcNAc
# How it was run: as §1
# [29] = target: Gal(b1-4)GlcNAc(b1-2)Man(a1-3)[GlcNAc(b1-4)][Gal(b1-4)GlcNAc(b1-2)Man(a1-6)]Man(b1-4)GlcNAc(b1-4)GlcNAc
# How it was run: as §1
# [30] = target: Gal(b1-4)GlcNAc(b1-2)Man(a1-3)[Man(a1-6)]Man(b1-4)GlcNAc(b1-4)GlcNAc
# How it was run: as §1
# [31] = target: Gal(b1-4)GlcNAc(b1-2)Man(a1-6)Man(b1-4)GlcNAc(b1-4)GlcNAc
# How it was run: as §1
# [32] = target: Gal(b1-4)GlcNAc(b1-2)Man(a1-6)[GlcNAc(b1-2)Man(a1-3)]Man(b1-4)GlcNAc(b1-4)GlcNAc
# How it was run: as §1
binder,measurement,setting,value
B1,glycan array binding signal (z-score),[1],0.489
same,glycan array binding signal (z-score),[2],1.06
same,glycan array binding signal (z-score),[3],1.58
same,glycan array binding signal (z-score),[4],-0.126
same,glycan array binding signal (z-score),[5],-0.613
same,glycan array binding signal (z-score),[6],0.005
same,glycan array binding signal (z-score),[7],-0.437
same,glycan array binding signal (z-score),[8],-0.376
same,glycan array binding signal (z-score),[9],0
same,glycan array binding signal (z-score),Gal(b1-3)GlcNAc6S,1.4
same,glycan array binding signal (z-score),[10],0.147
same,glycan array binding signal (z-score),[11],-0.292
same,glycan array binding signal (z-score),[12],-0.098
same,glycan array binding signal (z-score),[13],-1.04
same,glycan array binding signal (z-score),[14],0.943
same,glycan array binding signal (z-score),[15],-0.283
same,glycan array binding signal (z-score),[16],-0.813
same,glycan array binding signal (z-score),[17],-0.312
same,glycan array binding signal (z-score),[18],-0.584
same,glycan array binding signal (z-score),[19],-0.941
same,glycan array binding signal (z-score),Gal(b1-4)Gal,-0.978
same,glycan array binding signal (z-score),[20],0.244
same,glycan array binding signal (z-score),[21],-0.937
same,glycan array binding signal (z-score),Gal(b1-4)Glc,-0.474
same,glycan array binding signal (z-score),Gal(b1-4)Glc6S,0.038
same,glycan array binding signal (z-score),Gal(b1-4)GlcNAc,0.011
same,glycan array binding signal (z-score),[22],-0.856
same,glycan array binding signal (z-score),Gal(b1-4)GlcNAc(b1-2)Man,2.63
same,glycan array binding signal (z-score),[23],-0.479
same,glycan array binding signal (z-score),[24],0.717
same,glycan array binding signal (z-score),[25],2.37
same,glycan array binding signal (z-score),[26],-0.624
same,glycan array binding signal (z-score),[27],-0.379
same,glycan array binding signal (z-score),[28],-0.16
same,glycan array binding signal (z-score),[29],-1.04
same,glycan array binding signal (z-score),[30],-0.402
same,glycan array binding signal (z-score),[31],-0.59
same,glycan array binding signal (z-score),[32],0.002

# Part of the list above, with tabs.
binder	measurement	setting	value
B1	glycan array binding signal (z-score)	[1]	0.489
same	glycan array binding signal (z-score)	[2]	1.06

# Reference: the supplement of paper PMC8728848
